Results are given in words; binding and its absence hold for the method and conditions named. Some binding calls cover weakened binding; strength is not graded here.
Columns and labels:
[1] = target: biotinylated β-galactosidase (Pierce Chemical, 29939) [β-galactosidase: P00722]; assay: avidin immobilized in hydrogel spots, treated with biotinylated β-galactosidase (legend of FIG. 10)
[2] = target: biotinylated β-galactosidase (Pierce Chemical, 29939) [β-galactosidase: P00722]; assay: avidin immobilized in hydrogel spots, treated with 0.2 U/ml biotinylated β-galactosidase; bound enzyme detected by hydrolysis of fluorescent substrate C12FDG

By UniProt entry, the sequences of proteins in these tests, tags left out. Residues count along the entry.
UniProt P02701, residues 25-152: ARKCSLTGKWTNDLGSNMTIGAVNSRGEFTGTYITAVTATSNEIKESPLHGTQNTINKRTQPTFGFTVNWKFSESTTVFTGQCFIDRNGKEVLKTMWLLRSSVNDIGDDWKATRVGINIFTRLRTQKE

“avidin (NeutrAvidin, Pierce Chemical Company, catalog number 31000) (from UniProt P02701 25-152)” was tested, and the binding [1] was “binds” and the binding [2] was “binds”.

From patent publication US20030134294A1
